Data on six molecules can be found in the supplement of paper PMC10032668.

Chains of the proteins cited; added tags and fusions are not shown.
CALR, P27797, UniProt P27797, whole entry: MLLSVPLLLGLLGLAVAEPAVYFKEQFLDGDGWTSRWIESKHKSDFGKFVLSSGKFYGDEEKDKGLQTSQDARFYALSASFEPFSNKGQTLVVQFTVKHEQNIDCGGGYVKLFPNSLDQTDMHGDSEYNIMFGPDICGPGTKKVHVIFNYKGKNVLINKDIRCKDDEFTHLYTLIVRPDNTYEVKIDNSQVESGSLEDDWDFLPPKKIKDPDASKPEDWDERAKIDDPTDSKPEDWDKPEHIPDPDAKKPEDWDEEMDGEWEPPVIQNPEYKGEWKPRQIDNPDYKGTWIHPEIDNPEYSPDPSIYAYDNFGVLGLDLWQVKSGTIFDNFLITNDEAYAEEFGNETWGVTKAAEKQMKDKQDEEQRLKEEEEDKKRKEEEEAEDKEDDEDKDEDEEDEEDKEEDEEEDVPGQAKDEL
MORF4L2, Q15014, UniProt Q15014, whole entry: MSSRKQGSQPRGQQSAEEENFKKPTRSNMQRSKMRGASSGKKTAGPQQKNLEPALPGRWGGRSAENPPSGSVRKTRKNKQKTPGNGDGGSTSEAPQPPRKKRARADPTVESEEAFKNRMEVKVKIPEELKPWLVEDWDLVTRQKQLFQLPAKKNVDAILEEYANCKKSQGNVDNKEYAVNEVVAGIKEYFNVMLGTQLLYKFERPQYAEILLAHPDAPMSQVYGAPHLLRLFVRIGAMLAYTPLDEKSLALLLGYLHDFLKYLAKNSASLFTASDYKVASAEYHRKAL

± gives the standard deviation of the averaged measurements. The list shows a part of the results. The list holds hits alone, and they repeat only in part.

Common to all, as to assay: PRISMA enrichment of interactor (LFQ) in peptide spot vs all other peptide spots (log2 fold change); higher = stronger / more specific binding of the interactor to the peptide
The target in one experiment is ASPM, Q8IZT6. The method, then:
(§1)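 PRISMA: 15-aa overlapping tiles (offset 8 aa) of 60 microproteins, plus SOS1/GLUT1 control peptides, were spot-synthesized on cellulose membranes in triplicate. Membranes were incubated with benzonase-treated HEK293T lysate, and bound proteins were identified by LC-MS/MS with LFQ. Enrichment is the log2 fold change of each protein in one spot versus all other spots. Only interactors passing the significance cutoff are listed.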

The target in the next experiment is C1QBP, Q07021. How it is done:
as §1

The next experiment deals with CD2AP, Q9Y5K6. The method, then: as §1
In another experiment the target is CDIPT, O14735. The method, then:
as §1

The target of a further experiment is GLMN, Q92990. How it is done:
as §1

Another experiment has as its target MRPL27, Q9P0M9. The method, then: as §1
Another experiment addresses NAP1L1, P55209. How it is done: as §1
The target of the next experiment is RPF2, Q9H7B2. How it is done: as §1
The target of another experiment is SMNDC1, O75940. The method, then:
as §1

The next experiment addresses STUB1, Q9UNE7. The method, then:
as §1

The target of another experiment is ASNS, P08243. How it is done: as §1
The next experiment addresses ATP6V0D1, P61421. How it is done: as §1
In the next experiment the target is CALR, P27797. How it is done:
as §1

For a further experiment, the target named is CCDC47, Q96A33. How it is done:
as §1

The target in a further experiment is CDK9, P50750. The method, then:
as §1

The next experiment has as its target DES, P17661. The method, then:
as §1

The next experiment concerns the target EARS2, Q5JPH6. The method, then: as §1
Another experiment has as its target KARS, Q15046. The method, then: as §1
The target of a further experiment is MRPL24, Q96A35. The method, then: as §1
For another experiment, the target named is MRPS34, P82930. The method, then:
as §1

The target in a further experiment is MRPS5, P82675. How it is done: as §1
Another experiment deals with NAA10, P41227. How it is done: as §1
In the next experiment the target is OLA1, Q9NTK5. The method, then: as §1
The target in a further experiment is POLD2, P49005. The method, then:
as §1

The target of another experiment is SDF2L1, Q9HCN8. The method, then: as §1
A further experiment addresses SNX1, Q13596. How it is done: as §1
For a further experiment, the target named is ATIC, P31939. The method, then: as §1
A further experiment has as its target CLTA, P09496. The method, then: as §1
In the next experiment the target is DCAF16, Q9NXF7. The method, then:
as §1

The target of another experiment is DDX49, Q9Y6V7. The method, then:
as §1

In the next experiment the target is HSPA9, P38646. How it is done:
as §1

A further experiment has as its target MARCKSL1, P49006. How it is done: as §1
In a further experiment the target is PDIA3, P30101. How it is done:
as §1

Another experiment deals with PUSL1, Q8N0Z8. The method, then: as §1
In a further experiment the target is VCP, P55072. How it is done: as §1
The target in the next experiment is ATG3, Q9NT62. The method, then: as §1
The target of a further experiment is CLASP2, O75122. How it is done: as §1
The target of another experiment is CPSF3, Q9UKF6. How it is done:
as §1

The next experiment has as its target DDX46, Q7L014. The method, then:
as §1

The next experiment deals with EIF2B2, P49770. How it is done: as §1
For a further experiment, the target named is ETF1, P62495. The method, then: as §1
The target of the next experiment is GTF2I, P78347. The method, then: as §1
Another experiment has as its target HDLBP, Q00341. How it is done:
as §1

Another experiment deals with KAT7, O95251. How it is done: as §1
The target in the next experiment is LYRM2, Q9NU23. How it is done: as §1
Another experiment addresses MRPL11, Q9Y3B7. The method, then: as §1
The target in a further experiment is NACA. How it is done: as §1
The target of a further experiment is PSMD12, O00232. The method, then:
as §1

The next experiment has as its target PSMG1, O95456. How it is done: as §1
The next experiment has as its target RTF1, Q92541. The method, then: as §1
Another experiment concerns the target TOP1, P11387. How it is done: as §1
The target in a further experiment is UTP6, Q9NYH9. How it is done: as §1
The target of another experiment is XRN2, Q9H0D6. How it is done:
as §1

For another experiment, the target named is ATP2C1, P98194. How it is done: as §1
For another experiment, the target named is AURKB, Q96GD4. The method, then:
as §1

In another experiment the target is CDC27, P30260. The method, then: as §1
A further experiment has as its target CFDP1, Q9UEE9. The method, then: as §1
Another experiment concerns the target CHD4, Q14839. The method, then:
as §1

The next experiment has as its target CIAO1, O76071. How it is done:
as §1

For a further experiment, the target named is COPB2, P35606. How it is done:
as §1

A further experiment addresses CSDE1, O75534. How it is done: as §1
For another experiment, the target named is HP, P00738. The method, then:
as §1

The target in a further experiment is MAGOHB, Q96A72. How it is done: as §1
In another experiment the target is MORF4L2, Q15014. How it is done:
as §1

Another experiment concerns the target MRPL16, Q9NX20. The method, then: as §1
The target in the next experiment is MRPL41, Q8IXM3. How it is done: as §1
A further experiment addresses NEFM, P07197. The method, then:
as §1

A further experiment addresses PEX11B, O96011. The method, then:
as §1

For the next experiment, the target named is SRPK2, P78362. The method, then: as §1
Another experiment has as its target TAOK2, Q9UL54. How it is done: as §1
A further experiment addresses TIMM8A, O60220. How it is done:
as §1

In another experiment the target is TMEM214, Q6NUQ4. How it is done: as §1
Another experiment has as its target TTN, Q8WZ42. How it is done:
as §1

A further experiment has as its target UBXN7, O94888. How it is done:
as §1

The next experiment has as its target UTP15, Q8TED0. How it is done:
as §1

For the next experiment, the target named is WDCP, Q9H6R7. How it is done: as §1
The target in the next experiment is WDR82, Q6UXN9. The method, then:
as §1

Another experiment has as its target ATG4B, Q9Y4P1. The method, then: as §1
The target of a further experiment is GLS, O94925. How it is done:
as §1

For the next experiment, the target named is KPNA2, P52292. How it is done:
as §1

In the next experiment the target is PHF8, Q9UPP1. The method, then: as §1
For another experiment, the target named is ZNF622, Q969S3. The method, then: as §1

B1: SLCO5A1 (peptide)
chain: MSPGRARRLPQATAR
On to B1, for which the “PRISMA enrichment of interactor (log2)” value was found to be 4.97 with ASPM, Q8IZT6; 6.3 with C1QBP, Q07021; 5.96 with CD2AP, Q9Y5K6; 4.86 with CDIPT, O14735; 5 with GLMN, Q92990; 8.02 with MRPL27, Q9P0M9. The “PRISMA enrichment of interactor (log2)” value was 5.21 ± 0.76 in the experiment with NAP1L1, P55209; 6.03 in the experiment with RPF2, Q9H7B2; 4.76 with SMNDC1, O75940; 6.55 with STUB1, Q9UNE7.

B2: PVT1 (peptide)
chain: LKVVLREAVAECLMD
As for B2, the “PRISMA enrichment of interactor (log2)” value in the experiment with ASNS, P08243 is 8.28; in the experiment with ATP6V0D1, P61421, 7.6; with CALR, P27797, 6.66; with CCDC47, Q96A33, 5.69; with CDK9, P50750 it was 6.35; in the experiment with DES, P17661, 4.6. Besides, the “PRISMA enrichment of interactor (log2)” value with EARS2, Q5JPH6 is 7.56; in the experiment with KARS, Q15046, 4.92; in the experiment with MRPL24, Q96A35 it was 4.62; in the experiment with MRPS34, P82930, 7.33; in the experiment with MRPS5, P82675 it was 7.16; with NAA10, P41227, 6.01. The “PRISMA enrichment of interactor (log2)” value came out at 4.99 in the experiment with OLA1, Q9NTK5; 6.04 with POLD2, P49005; 8.34 with SDF2L1, Q9HCN8; 5.16 with SNX1, Q13596.

B3: NAV2-AS2_2 (peptide)
chain: EGFRLHLEPGSIFMP
On to B3, for which the “PRISMA enrichment of interactor (log2)” value in the experiment with ATIC, P31939 turned out to be 4.25; in the experiment with CLTA, P09496, 5.24; with DCAF16, Q9NXF7, 3.98; with DDX49, Q9Y6V7 it was 5.08; with HSPA9, P38646, 4.27; with MARCKSL1, P49006, 5. The “PRISMA enrichment of interactor (log2)” value was determined as 5.83 in the experiment with PDIA3, P30101; 5.19 in the experiment with PUSL1, Q8N0Z8; 4.98 with VCP, P55072.

B4: C5orf56 (peptide)
chain: RPPAWSAGPGAATRA
Turning to B4, the “PRISMA enrichment of interactor (log2)” value with ATG3, Q9NT62 was found to be 5.15; in the experiment with CLASP2, O75122, 5.6; with CPSF3, Q9UKF6, 3.93; in the experiment with DDX46, Q7L014, 4.09; with EIF2B2, P49770, 4.2; with ETF1, P62495 it was 6.62. Besides, the “PRISMA enrichment of interactor (log2)” value in the experiment with GTF2I, P78347 is 5.64; in the experiment with HDLBP, Q00341 it was 4.68; with KAT7, O95251, 3.68; with LYRM2, Q9NU23, 3.93; with MRPL11, Q9Y3B7, 5.62; with NACA, 5.42. For the same molecule, the “PRISMA enrichment of interactor (log2)” value in the experiment with PSMD12, O00232 was 8.72; with PSMG1, O95456, 7.09; with RTF1, Q92541, 4.84; with TOP1, P11387 it was 6.28; with UTP6, Q9NYH9, 5.03; in the experiment with XRN2, Q9H0D6 it was 4.33.

B5: PVT1 (peptide)
chain: SKDVPRDPRHLPVDF
In the case of B5, the “PRISMA enrichment of interactor (log2)” value turned out to be 9.99 with ATP2C1, P98194; 6.49 with ATP6V0D1, P61421; 6.3 with AURKB, Q96GD4; 6.42 with CDC27, P30260; 4.95 with CFDP1, Q9UEE9; 6.36 in the experiment with CHD4, Q14839. Moreover, the “PRISMA enrichment of interactor (log2)” value turned out to be 4.7 with CIAO1, O76071; 11.8 with COPB2, P35606; 5.6 in the experiment with CSDE1, O75534; 5 with HP, P00738; 5.87 in the experiment with MAGOHB, Q96A72; 5.8 with MORF4L2, Q15014. Besides, the “PRISMA enrichment of interactor (log2)” value with MRPL16, Q9NX20 is 4.17; with MRPL41, Q8IXM3 it was 6.32; with NEFM, P07197 it was 4.28; with PEX11B, O96011 it was 7.71; with SRPK2, P78362, 4.44; in the experiment with TAOK2, Q9UL54, 9.07. The “PRISMA enrichment of interactor (log2)” value stood at 6.44 in the experiment with TIMM8A, O60220; 5.64 with TMEM214, Q6NUQ4; 6.38 in the experiment with TTN, Q8WZ42; 8.86 with UBXN7, O94888; 6.27 with UTP15, Q8TED0; 4.36 with WDCP, Q9H6R7. For the same molecule, in the experiment with WDR82, Q6UXN9, the “PRISMA enrichment of interactor (log2)” value worked out at 4.63.

B6: CTD-2366F13.1 (peptide)
chain: ARLLDTCRLRYGGLA
On to B6, for which the “PRISMA enrichment of interactor (log2)” value worked out at 5.47 with ATG4B, Q9Y4P1; 4.93 with GLS, O94925; 4.89 in the experiment with KPNA2, P52292; 4.73 in the experiment with PHF8, Q9UPP1; 5.71 with ZNF622, Q969S3.
